## Percent effect of library compounds

Source: ChEMBL document CHEMBL3988442, “University of Dundee, Small-Polar-MMV Screening Library” (2021).

Values are the deposited “Percent Effect”, in %.
The controls that fix the scale are not given in the record; negative values are as filed.
The compounds are a random part of those screened.

Mtb glucose medium: 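Growth of Mycobacterium tuberculosis over 3 days (7H9 medium with glucose and tyloxapol); the read-out is not stated. Compounds at 500 µM. The record gives no direction; compounds that gave an IC50 in retests scored well above the rest, so higher reads as more growth inhibition. About 18,000 compounds were tested under these conditions; 7.9% (about 1,400) showed 50% or more at least once.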
Mtb cholesterol medium: 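Whole-cell growth test on Mycobacterium tuberculosis, read after 4 days in a medium based on cholesterol and the lipid DPPC; the read-out is not stated. Compounds at 500 µM. Higher reads as more growth inhibition (inferred: compounds with an IC50 in retests scored well above the rest). Size under these conditions: about 18,000 compounds, about 900 of them at 50% or above in at least one test.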

With CCOc1ccc(NC(=O)C(C)n2cccn2)cc1 (stereo not given) the screen gave Mtb glucose medium: 34.27%; Mtb cholesterol medium: 35.36%.
With CNC(=O)NC(=O)CNC(C)(C)c1nc(C)c(C)s1 the screen gave Mtb glucose medium: 11.46%; Mtb cholesterol medium: 11.19%.
With Cn1cncc1CCNC(=O)CC1CC1 the screen gave Mtb glucose medium: -4.466%; Mtb cholesterol medium: -12.45%.
With CCCn1nnnc1NCc1ccc(F)cc1 the screen gave Mtb glucose medium: 76.53%; Mtb cholesterol medium: 60.93%.
With N#Cc1ncn(CC(N)=O)n1 the screen gave Mtb glucose medium: 4.972%; Mtb cholesterol medium: -1.388%.
With O=C1CCC(NS(=O)(=O)c2cc(Cl)ccc2F)CN1 (stereo not given) the screen gave Mtb glucose medium: 0.9872%; Mtb cholesterol medium: -13.71%.
With CS(=O)(=O)N1CCC(NCC(F)F)CC1 the screen gave Mtb glucose medium: -18.25%; Mtb cholesterol medium: -17.36%.
With Cc1ccc(Cl)cc1NC(=O)CN1C(=O)CCC1=O the screen gave Mtb glucose medium: 6.165%; Mtb cholesterol medium: -4.309%.
With CN(C)C(=O)CNc1ccccc1-n1cccn1 the screen gave Mtb glucose medium: 16.4%; Mtb cholesterol medium: -2.633%.
With CN1CCN(C(=O)C2CCCNC2)CC1 (stereo not given) the screen gave Mtb glucose medium: 2.285%; Mtb cholesterol medium: -0.5867%.
With COCCN(C)CCNC(=O)c1ccc(F)c(F)c1 the screen gave Mtb glucose medium: 21.5%; Mtb cholesterol medium: 26.8%.
With CC(=O)N1CSCC1c1nc(-c2cccs2)no1 (stereo not given) the screen gave Mtb glucose medium: 18.56%; Mtb cholesterol medium: -4.691%.
With O=C(CN1CCN(c2ccccn2)CC1)NC1CC1 the screen gave Mtb glucose medium: 18.56%; Mtb cholesterol medium: 2.272%.
With Cc1c(Br)cccc1C(=O)NCCCNS(C)(=O)=O the screen gave Mtb glucose medium: 15.17%; Mtb cholesterol medium: 8.271%.
With CCN1C(=O)C[C@H](CN)[C@H]1c1cccnc1 the screen gave Mtb glucose medium: 4.964%; Mtb cholesterol medium: -0.171%.
With CNC(=O)C1CCN(C(=O)NCc2ccccn2)CC1 the screen gave Mtb glucose medium: 6.263%; Mtb cholesterol medium: 6.659%.
With CCOC(=O)C(CN)CC(C)C (stereo not given) the screen gave Mtb glucose medium: 9.033%; Mtb cholesterol medium: -3.574%.
With CN(C(=O)CSCC#N)C1CCCCC1 the screen gave Mtb glucose medium: 34.88%; Mtb cholesterol medium: 24.96%.
With N#CC1(C(=O)NC2CCCCNC2=O)CCCCC1 (stereo not given) the screen gave Mtb glucose medium: 1.399%; Mtb cholesterol medium: 0.4885%.
With OC(Cc1ccccc1)C1CCNCC1 (stereo not given) the screen gave Mtb glucose medium: -13.95%; Mtb cholesterol medium: -7.945%.
With CC(C)c1nnsc1C(=O)N[C@@H]1COCC[C@H]1O the screen gave Mtb glucose medium: 6.814%; Mtb cholesterol medium: -11.03%.
With CC1(CO)COCCN1Cc1ccccc1 (stereo not given) the screen gave Mtb glucose medium: 5.45%; Mtb cholesterol medium: 0.6937%.
With CCCN(CCC)C(=O)CN1CCCN(C(C)=O)CC1 the screen gave Mtb glucose medium: 4.551%; Mtb cholesterol medium: -0.265%.
With COCCNC(=O)Nc1ccc(OC(F)F)c(F)c1 the screen gave Mtb glucose medium: 66.66%; Mtb cholesterol medium: 69.12%.
With COC(=O)NCCc1ccccc1OC the screen gave Mtb glucose medium: 61.37%; Mtb cholesterol medium: 29.36%.
With CN1CCCN(C(=O)c2ccc(C#N)cc2)CC1 the screen gave Mtb glucose medium: 2.844%; Mtb cholesterol medium: -4.708%.
With CC(C)CS(=O)(=O)NCc1ccc2c(c1)OCO2 the screen gave Mtb glucose medium: 72.54%; Mtb cholesterol medium: 59.95%.
With O[C@H]1C[C@@H](c2cc(NCCc3cn[nH]c3)ncn2)C1 the screen gave Mtb glucose medium: 20.1%; Mtb cholesterol medium: 1.089%.